# Values quoted from earlier work, collected in patent US20250288564A1, “DIHYDROBERBERINE COMPOSITION AND USE THEREOF” (NANJING NUTRABUILDING BIO-TECH CO., LTD., priority 2022, published 2025).
# The name of at least one read-out is uncertain.
# Conditions: compared with berberine, background statement; cited from earlier work
smiles,measurement,value
COc1ccc2c(c1OC)CN1CCc3cc4c(cc3C1=C2)OCO4 [dihydroberberine],bioavailability relative to berberine,five times higher bioavailability
